This note sets out measurements from paper PMC5500509, “The prognostic biomarker L-homoarginine is a substrate of the cationic amino acid transporters CAT1, CAT2A and CAT2B” (Scientific Reports, 2017).

Chains of the proteins cited; added tags and fusions are not shown. Lines headed by an entry give the natural chain unless they say otherwise; changes in a name come on top.
UniProt P30825: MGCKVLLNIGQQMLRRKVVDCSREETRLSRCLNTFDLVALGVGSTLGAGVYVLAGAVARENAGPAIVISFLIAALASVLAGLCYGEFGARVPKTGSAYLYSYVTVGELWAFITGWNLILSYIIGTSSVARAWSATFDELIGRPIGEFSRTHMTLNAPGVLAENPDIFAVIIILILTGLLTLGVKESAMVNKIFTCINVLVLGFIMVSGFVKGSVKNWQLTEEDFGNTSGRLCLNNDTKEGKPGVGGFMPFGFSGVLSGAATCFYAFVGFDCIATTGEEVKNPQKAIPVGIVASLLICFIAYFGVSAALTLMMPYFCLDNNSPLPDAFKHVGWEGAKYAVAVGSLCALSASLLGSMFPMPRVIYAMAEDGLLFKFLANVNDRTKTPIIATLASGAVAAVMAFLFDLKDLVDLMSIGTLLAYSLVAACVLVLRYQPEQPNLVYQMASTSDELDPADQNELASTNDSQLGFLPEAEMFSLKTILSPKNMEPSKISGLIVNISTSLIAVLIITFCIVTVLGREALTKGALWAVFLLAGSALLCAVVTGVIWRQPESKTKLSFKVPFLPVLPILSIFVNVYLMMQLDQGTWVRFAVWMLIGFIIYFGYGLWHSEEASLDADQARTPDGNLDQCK

The target in the experiment is T1, human CAT1 (SLC7A1) (Homo sapiens, UniProt P30825).
T1 construct: expressed in transfected cells
Description: Inhibition of CAT1-mediated substrate uptake in HEK CAT1 cells. The class given is cell-based. The method, then: Cell lines and basic cell culture conditions have previously been described, [24]. The original choice of human embryonic kidney cells (HEK293) cells for transfection with CAT1-, CAT2A- or CAT2B- was based on their reliable growth and well established propensity for transfection and cellular uptake experiments. In brief, uptake assays were performed using [^3H]-labeled substrate and human embryonic kidney (HEK293) cells stably overexpressing the empty vector only (HEK VCG418 and HEK VChygro, depending on selection conditions) or human CAT1 (HEK CAT1, gene: SLC7A1, NM_003045.4), CAT2A (HEK CAT2A, gene: SLC7A2A, NM_003046.5) or CAT2B (HEK CAT2B, SLC7A2B, NM_001008539.3). […]
The transport assays were performed as previously described with minor modifications, [24]. […] In order to identify the period of linear L-homoarginine uptake time dependence was assessed. […]
After cooling to 0 °C the cells were washed three times with ice-cold transport buffer and lysed with 0.2% SDS. The intracellular accumulation of radioactivity was determined by liquid scintillation counting (TriCarb 2800; PerkinElmer Life and Analytical Sciences, Inc.) after adding 4 ml of scintillation solution (Ultima Gold XR; PerkinElmer Life and Analytical Sciences, Inc., Rodgau-Jügesheim, Germany). […]

`N=C(N)NCCC[C@H](N)C(=O)O` [L-arginine] showed a half-inhibitory concentration (IC50) of 259 µM.
